The test deals with Upstream transcription factor 2 (USF2) (human (endogenous in Jurkat)) (UniProt Q15853). In words: co-IP; reciprocal co-IP (precipitation of USF2, blot for LysRS) from sonicated Jurkat cell lysates, without or with single-cycle HIV-1 infection; 1% Triton X-100, overnight.

Sequences of proteins named here, by UniProt entry; tags and fusion partners are left off.
UniProt Q15853: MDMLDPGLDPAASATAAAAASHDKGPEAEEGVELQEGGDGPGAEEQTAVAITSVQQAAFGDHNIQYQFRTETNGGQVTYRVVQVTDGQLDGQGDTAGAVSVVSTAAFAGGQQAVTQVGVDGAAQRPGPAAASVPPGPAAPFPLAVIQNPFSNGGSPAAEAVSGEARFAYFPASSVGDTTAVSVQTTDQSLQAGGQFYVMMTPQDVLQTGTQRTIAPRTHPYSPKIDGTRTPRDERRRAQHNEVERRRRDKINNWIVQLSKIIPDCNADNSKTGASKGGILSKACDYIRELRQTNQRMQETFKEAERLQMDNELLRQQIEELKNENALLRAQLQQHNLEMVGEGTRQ
UniProt Q15046: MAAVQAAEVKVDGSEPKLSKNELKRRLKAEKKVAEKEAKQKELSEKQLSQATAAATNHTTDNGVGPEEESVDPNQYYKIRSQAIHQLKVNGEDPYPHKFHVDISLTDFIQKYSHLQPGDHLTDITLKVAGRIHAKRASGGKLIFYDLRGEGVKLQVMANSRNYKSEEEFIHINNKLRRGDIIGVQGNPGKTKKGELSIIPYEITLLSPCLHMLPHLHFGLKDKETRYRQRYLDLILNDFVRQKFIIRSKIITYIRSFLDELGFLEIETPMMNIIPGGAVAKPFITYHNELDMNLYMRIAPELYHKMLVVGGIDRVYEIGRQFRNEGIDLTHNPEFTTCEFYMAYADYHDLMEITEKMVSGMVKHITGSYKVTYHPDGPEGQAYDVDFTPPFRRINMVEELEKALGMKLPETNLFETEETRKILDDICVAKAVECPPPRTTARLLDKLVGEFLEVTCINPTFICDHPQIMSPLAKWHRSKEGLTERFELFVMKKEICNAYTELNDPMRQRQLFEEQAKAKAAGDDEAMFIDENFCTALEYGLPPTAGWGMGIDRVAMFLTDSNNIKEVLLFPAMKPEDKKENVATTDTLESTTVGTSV

These are yes or no findings as the source states them, for the method shown. Binding seen in cells or lysates may run through a third protein. Some binding calls cover weakened binding; strength is not graded here.

As to “Human lysyl-tRNA synthetase (LysRS) (from UniProt Q15046 1-597) (enzyme)”, the binding result is given as “binds”.

The values are drawn from paper PMC10711549.
